Data reported in US20080207537A1, “Topical Ungual Formulations” (priority 2005, published 2008).
Some entries repeat one wording, which the source may state once for all of them.

Experiment: Nail swelling study (weight increase of nail clippings immersed in penetration enhancer solution)
Design: species or system human
Conditions: for weight of the nail clippings after 20 h compared to the control: ANOVA, n=10 (FIG. 1)

## N.O=C(O)CS [Ammonium thioglycolate]
Single penetration enhancer
  weight of the nail clippings after 20 h compared to the control: significantly increased
Single penetration enhancer, compared to controls
  physical change in appearance of treated nails: softer than the controls and also lighter in colour

## Cl.N[C@@H](CS)C(=O)O.O [Cysteine, L-Cysteine hydrochloride hydrate]
Single penetration enhancer
  weight of the nail clippings after 20 h compared to the control: did not significantly increase

## O=C([O-])CS.O=C([O-])CS.[Ca+2] [Calcium thioglycolate]
Salts of TA, all at 5% concentration, 20 h (FIG. 7)
  increase in nail weight, rank among salts of TA: largest increase in nail weight
